This is one part of the list.
Compound: Cc1ncc(-c2ccnc(Nc3ccc(S(C)(=O)=O)cc3)n2)n1C(C)C
Assay: log2 fold change, soluble protein after heating vs DMSO (PISA); higher = thermal stabilisation; K562 lysate, 10 uM; active = over 0.2 and 3.5 SD of the protein, either way, in both replicates (recomputed)
Procedure, shortened: (§1)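 K562 pellets were dounce-homogenised in PBS pH 7.4 containing 1 mM MgCl2, and the crude extract, at 1 mg/mL protein, was exposed to 10 μM compound for 30 min. Aliquots were heated for 3 min across 48°C-58°C, pooled, brought to 0.5% NP-40 at 4°C and spun at 21,000xg for 90 min, with the supernatant taken as soluble protein. TMTpro 16plex LC-MS/MS with equalised channel sums quantified that protein. Values are log-two fold changes in thermal stability relative to solvent controls, taken from duplicates.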

The chains behind the UniProt entries cited, without tags or fusion partners. Where a name states a change or a piece, a line headed by the entry shows the natural chain unless it says otherwise.
UniProt Q9UGY1: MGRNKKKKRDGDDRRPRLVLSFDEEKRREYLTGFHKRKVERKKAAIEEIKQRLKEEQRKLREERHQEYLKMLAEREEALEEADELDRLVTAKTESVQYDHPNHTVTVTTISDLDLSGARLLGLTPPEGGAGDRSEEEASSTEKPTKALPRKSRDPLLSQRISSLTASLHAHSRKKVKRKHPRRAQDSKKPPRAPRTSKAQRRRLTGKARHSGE
UniProt P53384: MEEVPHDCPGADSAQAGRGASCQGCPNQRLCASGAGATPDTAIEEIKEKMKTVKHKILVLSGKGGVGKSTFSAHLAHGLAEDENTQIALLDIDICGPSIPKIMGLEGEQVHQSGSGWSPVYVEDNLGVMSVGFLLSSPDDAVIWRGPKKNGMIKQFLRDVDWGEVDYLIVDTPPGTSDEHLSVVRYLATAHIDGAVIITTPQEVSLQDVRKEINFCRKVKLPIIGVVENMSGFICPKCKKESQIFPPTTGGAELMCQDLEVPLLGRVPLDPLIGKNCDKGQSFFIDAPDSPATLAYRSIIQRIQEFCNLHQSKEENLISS
UniProt Q9BQG2: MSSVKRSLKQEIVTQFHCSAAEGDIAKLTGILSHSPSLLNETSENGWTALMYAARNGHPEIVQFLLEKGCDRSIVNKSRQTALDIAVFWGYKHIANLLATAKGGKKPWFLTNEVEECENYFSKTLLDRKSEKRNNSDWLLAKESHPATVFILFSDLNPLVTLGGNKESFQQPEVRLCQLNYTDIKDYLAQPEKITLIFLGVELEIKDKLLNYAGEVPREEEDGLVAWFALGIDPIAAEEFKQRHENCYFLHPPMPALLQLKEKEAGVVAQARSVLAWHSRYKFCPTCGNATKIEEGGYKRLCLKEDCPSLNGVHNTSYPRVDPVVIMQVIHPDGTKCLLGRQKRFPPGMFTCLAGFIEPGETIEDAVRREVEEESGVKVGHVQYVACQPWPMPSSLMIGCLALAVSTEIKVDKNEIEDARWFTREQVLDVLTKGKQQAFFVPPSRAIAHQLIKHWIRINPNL
UniProt Q9NZJ9: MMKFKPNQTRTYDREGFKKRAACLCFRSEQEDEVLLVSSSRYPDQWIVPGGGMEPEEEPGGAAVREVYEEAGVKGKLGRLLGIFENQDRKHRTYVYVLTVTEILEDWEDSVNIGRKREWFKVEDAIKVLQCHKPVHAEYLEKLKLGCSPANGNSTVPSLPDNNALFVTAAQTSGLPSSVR
UniProt Q9UNZ2: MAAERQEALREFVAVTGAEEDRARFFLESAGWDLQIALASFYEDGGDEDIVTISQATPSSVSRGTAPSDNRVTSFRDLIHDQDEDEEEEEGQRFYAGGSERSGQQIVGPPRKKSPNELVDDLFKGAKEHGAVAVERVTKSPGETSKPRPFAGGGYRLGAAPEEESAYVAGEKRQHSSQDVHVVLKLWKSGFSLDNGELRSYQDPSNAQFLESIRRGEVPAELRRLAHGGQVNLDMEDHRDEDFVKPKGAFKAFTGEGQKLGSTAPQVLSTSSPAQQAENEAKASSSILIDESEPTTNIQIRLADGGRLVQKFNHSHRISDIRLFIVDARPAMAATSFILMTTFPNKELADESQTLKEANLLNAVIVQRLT
UniProt Q8WTT2: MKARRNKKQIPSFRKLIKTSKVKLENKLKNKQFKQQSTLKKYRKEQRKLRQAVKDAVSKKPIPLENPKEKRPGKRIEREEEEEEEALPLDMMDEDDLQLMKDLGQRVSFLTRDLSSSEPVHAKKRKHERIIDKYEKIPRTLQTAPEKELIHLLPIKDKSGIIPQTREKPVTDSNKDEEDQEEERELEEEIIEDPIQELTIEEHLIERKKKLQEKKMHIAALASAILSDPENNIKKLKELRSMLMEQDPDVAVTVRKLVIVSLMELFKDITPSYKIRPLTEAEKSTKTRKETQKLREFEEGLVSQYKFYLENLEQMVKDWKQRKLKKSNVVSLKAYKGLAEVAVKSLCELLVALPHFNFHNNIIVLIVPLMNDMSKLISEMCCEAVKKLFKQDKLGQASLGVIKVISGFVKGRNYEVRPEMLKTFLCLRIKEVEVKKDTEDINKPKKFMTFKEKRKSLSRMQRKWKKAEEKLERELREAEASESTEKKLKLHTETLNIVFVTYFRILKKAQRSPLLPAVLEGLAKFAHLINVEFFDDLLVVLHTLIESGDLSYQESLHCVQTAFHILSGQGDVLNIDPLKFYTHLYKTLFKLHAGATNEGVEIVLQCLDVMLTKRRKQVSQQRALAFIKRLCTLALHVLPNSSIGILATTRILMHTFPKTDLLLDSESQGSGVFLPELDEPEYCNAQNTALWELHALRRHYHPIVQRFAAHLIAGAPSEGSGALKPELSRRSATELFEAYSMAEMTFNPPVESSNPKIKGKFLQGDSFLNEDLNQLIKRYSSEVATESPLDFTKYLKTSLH
UniProt Q96D46: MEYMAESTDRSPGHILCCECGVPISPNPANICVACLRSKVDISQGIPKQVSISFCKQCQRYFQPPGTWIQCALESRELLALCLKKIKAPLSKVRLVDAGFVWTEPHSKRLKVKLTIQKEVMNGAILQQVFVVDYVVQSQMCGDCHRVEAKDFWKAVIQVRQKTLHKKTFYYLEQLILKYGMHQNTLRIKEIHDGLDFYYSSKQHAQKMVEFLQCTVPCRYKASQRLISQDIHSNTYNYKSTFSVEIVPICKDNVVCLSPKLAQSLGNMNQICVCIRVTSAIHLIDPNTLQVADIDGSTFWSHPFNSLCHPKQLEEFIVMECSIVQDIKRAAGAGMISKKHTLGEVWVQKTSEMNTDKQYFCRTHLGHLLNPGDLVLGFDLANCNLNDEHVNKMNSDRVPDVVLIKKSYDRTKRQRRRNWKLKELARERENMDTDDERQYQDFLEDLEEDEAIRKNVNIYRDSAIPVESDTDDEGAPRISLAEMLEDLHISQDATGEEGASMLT
UniProt Q9NXX6: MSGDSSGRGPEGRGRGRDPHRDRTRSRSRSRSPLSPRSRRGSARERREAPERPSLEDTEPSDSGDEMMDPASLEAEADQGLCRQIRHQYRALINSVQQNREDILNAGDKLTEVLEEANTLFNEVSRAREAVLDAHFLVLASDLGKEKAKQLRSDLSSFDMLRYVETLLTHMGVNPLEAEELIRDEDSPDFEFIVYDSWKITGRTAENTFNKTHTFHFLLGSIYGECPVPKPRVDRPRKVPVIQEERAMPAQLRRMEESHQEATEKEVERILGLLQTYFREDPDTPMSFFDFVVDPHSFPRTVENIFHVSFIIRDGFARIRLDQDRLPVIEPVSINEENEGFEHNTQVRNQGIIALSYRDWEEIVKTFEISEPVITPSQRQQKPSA
UniProt Q96RS6: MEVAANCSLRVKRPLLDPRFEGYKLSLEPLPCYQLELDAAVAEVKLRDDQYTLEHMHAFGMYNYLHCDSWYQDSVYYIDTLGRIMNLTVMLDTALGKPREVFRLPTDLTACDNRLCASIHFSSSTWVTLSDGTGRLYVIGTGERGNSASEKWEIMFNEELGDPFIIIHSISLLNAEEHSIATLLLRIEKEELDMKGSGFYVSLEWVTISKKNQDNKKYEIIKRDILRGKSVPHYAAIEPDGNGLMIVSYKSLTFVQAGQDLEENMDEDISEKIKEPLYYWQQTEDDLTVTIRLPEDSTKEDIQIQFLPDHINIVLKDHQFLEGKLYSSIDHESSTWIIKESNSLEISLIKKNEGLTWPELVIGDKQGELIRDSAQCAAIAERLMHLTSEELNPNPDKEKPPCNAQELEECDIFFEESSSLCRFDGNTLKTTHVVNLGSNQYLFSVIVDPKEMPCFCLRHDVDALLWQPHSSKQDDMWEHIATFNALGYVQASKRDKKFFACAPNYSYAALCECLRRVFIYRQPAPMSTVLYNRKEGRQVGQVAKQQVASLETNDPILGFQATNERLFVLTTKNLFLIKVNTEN
UniProt Q8NC60: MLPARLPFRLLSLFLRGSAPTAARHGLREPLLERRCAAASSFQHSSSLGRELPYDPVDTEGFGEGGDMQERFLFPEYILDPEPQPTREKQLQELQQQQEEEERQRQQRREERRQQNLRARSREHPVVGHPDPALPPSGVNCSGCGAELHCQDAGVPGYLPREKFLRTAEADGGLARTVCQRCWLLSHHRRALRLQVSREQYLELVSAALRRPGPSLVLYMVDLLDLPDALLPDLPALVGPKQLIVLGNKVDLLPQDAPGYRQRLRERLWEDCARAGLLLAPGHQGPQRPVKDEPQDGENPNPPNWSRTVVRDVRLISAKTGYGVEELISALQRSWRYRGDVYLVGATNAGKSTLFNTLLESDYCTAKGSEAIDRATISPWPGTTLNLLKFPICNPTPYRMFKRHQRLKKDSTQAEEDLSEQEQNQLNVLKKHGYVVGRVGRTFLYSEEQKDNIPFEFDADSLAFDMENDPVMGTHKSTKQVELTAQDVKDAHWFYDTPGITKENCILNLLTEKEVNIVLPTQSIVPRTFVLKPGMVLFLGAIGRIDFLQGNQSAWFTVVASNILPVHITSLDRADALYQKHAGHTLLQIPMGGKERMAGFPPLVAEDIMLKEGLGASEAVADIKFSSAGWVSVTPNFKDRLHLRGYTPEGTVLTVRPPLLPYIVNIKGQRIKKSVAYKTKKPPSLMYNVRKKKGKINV
UniProt Q9Y314: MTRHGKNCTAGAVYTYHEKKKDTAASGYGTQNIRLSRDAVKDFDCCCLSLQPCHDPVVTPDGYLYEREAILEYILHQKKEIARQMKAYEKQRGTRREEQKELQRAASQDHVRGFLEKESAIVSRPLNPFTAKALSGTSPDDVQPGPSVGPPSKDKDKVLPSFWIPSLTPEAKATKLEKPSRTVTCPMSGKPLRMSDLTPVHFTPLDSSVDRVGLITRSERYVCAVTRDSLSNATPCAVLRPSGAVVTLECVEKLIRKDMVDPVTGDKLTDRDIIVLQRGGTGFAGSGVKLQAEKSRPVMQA
UniProt Q8TCD5: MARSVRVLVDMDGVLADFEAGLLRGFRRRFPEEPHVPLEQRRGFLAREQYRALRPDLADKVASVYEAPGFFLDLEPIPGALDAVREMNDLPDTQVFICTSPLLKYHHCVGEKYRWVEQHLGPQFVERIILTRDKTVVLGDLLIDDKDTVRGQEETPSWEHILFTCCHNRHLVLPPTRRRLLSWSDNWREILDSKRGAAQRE
UniProt Q08J23, whole entry, looked up: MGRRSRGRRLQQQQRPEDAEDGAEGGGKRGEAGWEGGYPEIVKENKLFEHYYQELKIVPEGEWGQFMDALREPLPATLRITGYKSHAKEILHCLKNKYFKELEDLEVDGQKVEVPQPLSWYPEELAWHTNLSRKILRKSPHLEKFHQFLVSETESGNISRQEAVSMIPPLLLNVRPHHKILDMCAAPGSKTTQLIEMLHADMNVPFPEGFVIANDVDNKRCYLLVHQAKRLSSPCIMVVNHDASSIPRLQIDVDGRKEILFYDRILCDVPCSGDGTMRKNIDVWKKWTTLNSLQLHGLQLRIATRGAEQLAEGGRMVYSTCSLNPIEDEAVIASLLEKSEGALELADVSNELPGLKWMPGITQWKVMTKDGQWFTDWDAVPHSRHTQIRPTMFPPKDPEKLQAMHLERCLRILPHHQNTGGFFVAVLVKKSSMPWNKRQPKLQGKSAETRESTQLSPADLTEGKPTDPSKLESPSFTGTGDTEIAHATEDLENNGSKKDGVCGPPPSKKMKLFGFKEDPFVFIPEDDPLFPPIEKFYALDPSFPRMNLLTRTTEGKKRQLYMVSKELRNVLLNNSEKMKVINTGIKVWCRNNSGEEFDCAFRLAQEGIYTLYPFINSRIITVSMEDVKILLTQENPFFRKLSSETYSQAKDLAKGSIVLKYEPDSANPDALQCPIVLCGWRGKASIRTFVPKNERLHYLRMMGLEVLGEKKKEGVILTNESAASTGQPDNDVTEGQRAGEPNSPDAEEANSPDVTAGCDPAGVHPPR
UniProt Q9H857: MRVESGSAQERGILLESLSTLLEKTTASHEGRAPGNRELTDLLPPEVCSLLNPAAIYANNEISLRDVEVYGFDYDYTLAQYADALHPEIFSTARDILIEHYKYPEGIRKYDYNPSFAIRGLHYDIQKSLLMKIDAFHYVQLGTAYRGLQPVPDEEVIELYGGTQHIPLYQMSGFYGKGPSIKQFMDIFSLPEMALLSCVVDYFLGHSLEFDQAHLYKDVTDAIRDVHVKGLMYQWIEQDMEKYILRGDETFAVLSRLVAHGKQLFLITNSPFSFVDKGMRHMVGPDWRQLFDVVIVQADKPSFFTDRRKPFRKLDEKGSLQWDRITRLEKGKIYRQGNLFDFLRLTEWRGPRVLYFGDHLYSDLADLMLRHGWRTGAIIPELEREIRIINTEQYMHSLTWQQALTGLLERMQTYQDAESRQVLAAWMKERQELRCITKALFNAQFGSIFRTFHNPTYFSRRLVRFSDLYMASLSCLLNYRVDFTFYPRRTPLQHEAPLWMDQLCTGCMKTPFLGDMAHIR

log2 fold change, inactive:
NUDT5 (UniProt Q9UKK9) 0.008
NOL12 (UniProt Q9UGY1) -0.068
NUBP1 (UniProt P53384) -0.007
NUMBL (UniProt Q9Y6R0) -0.12
NUDT12 (UniProt Q9BQG2) 0.006
NMNAT1 (UniProt Q9HAN9) -0.002
NT5C2 (UniProt P49902) 0.013
NSRP1 (UniProt Q9H0G5) 0.013
NUDT4 isoform 2 (UniProt Q9NZJ9) -0.002
NSL1 (UniProt Q96IY1) -0.014
NSFL1C isoform 5 (UniProt Q9UNZ2) -0.017
NSUN5 isoform 2 (UniProt Q96P11) 0.022
NRAS (UniProt P01111) 0.007
NOC3L (UniProt Q8WTT2) -0.024
NMD3 (UniProt Q96D46) 0.015
NSMCE4A (UniProt Q9NXX6) -0.049
NUDCD1 (UniProt Q96RS6) 0.029
NOMO2 (UniProt Q5JPE7) -0.005
NOA1 (UniProt Q8NC60) -0.011
NOP53 (UniProt Q9NZM5) -0.065
NOSIP (UniProt Q9Y314) 0.027
NUDCD2 (UniProt Q8WVJ2) -0.003
NSF (UniProt P46459) -0.016
NUMA1 (UniProt Q14980) -0.001
NME2 isoform 2 (UniProt P22392) -0.005
NUDT15 (UniProt Q9NV35) -0.009
NT5C (UniProt Q8TCD5) -0.16
NSDHL (UniProt Q15738) 0.006
NSUN2 (UniProt Q08J23) -0.005
NT5DC1 (UniProt Q5TFE4) -0.044
NRBP2 (UniProt Q9NSY0) -0.008
NT5DC2 isoform 2 (UniProt Q9H857) 0.029

Compound: Cn1cc(-c2ccc3c(c2)CCN3C(=O)Cc2cccc(C(F)(F)F)c2)c2c(N)ncnc21
Assay: as above
Procedure, shortened: as §1

log2 fold change, inactive:
NUDT5 (UniProt Q9UKK9) -0.024
NOL12 (UniProt Q9UGY1) 0.005
NUBP1 (UniProt P53384) 0.021
NUMBL (UniProt Q9Y6R0) 0.219
NUDT12 (UniProt Q9BQG2) -0.033
NMNAT1 (UniProt Q9HAN9) 0.063
NT5C2 (UniProt P49902) 0
NSRP1 (UniProt Q9H0G5) -0.023
NUDT4 isoform 2 (UniProt Q9NZJ9) 0.038
NSL1 (UniProt Q96IY1) 0
NSFL1C isoform 5 (UniProt Q9UNZ2) 0.007
NSUN5 isoform 2 (UniProt Q96P11) 0.004
NRAS (UniProt P01111) 0.001
NOC3L (UniProt Q8WTT2) 0.016
NMD3 (UniProt Q96D46) -0.017
NSMCE4A (UniProt Q9NXX6) 0.045
NUDCD1 (UniProt Q96RS6) 0
NOMO2 (UniProt Q5JPE7) -0.008
NOA1 (UniProt Q8NC60) -0.036
NOP53 (UniProt Q9NZM5) 0.1
NOSIP (UniProt Q9Y314) -0.019
NUDCD2 (UniProt Q8WVJ2) -0.033
NSF (UniProt P46459) 0.01
NUMA1 (UniProt Q14980) 0.056
NME2 isoform 2 (UniProt P22392) -0.01
NUDT15 (UniProt Q9NV35) 0.027
NT5C (UniProt Q8TCD5) -0.025
NSDHL (UniProt Q15738) -0.039
NSUN2 (UniProt Q08J23) 0.022
NT5DC1 (UniProt Q5TFE4) 0.002
NRBP2 (UniProt Q9NSY0) 0.065
NT5DC2 isoform 2 (UniProt Q9H857) -0.027

Compound: Cn1cc(CNCC2CCN(c3ncc(C(=O)NO)cn3)CC2)c2ccccc21 [quisinostat]
Assay: as above
Procedure, shortened: as §1

log2 fold change, inactive:
NUDT5 (UniProt Q9UKK9) -0.016
NOL12 (UniProt Q9UGY1) 0.028
NUBP1 (UniProt P53384) 0.036
NUMBL (UniProt Q9Y6R0) 0.04
NUDT12 (UniProt Q9BQG2) -0.068
NMNAT1 (UniProt Q9HAN9) -0.028
NT5C2 (UniProt P49902) -0.013
NSRP1 (UniProt Q9H0G5) -0.008
NUDT4 isoform 2 (UniProt Q9NZJ9) -0.012
NSL1 (UniProt Q96IY1) -0.009
NSFL1C isoform 5 (UniProt Q9UNZ2) 0.028
NSUN5 isoform 2 (UniProt Q96P11) -0.008
NRAS (UniProt P01111) 0.11
NOC3L (UniProt Q8WTT2) -0.094
NMD3 (UniProt Q96D46) -0.003
NSMCE4A (UniProt Q9NXX6) -0.029
NUDCD1 (UniProt Q96RS6) -0.026
NOMO2 (UniProt Q5JPE7) -0.017
NOA1 (UniProt Q8NC60) -0.089
NOP53 (UniProt Q9NZM5) 0.035
NOSIP (UniProt Q9Y314) -0.151
NUDCD2 (UniProt Q8WVJ2) 0.036
NSF (UniProt P46459) 0.012
NUMA1 (UniProt Q14980) -0.066
NME2 isoform 2 (UniProt P22392) -0.009
NUDT15 (UniProt Q9NV35) 0.006
NT5C (UniProt Q8TCD5) -0.004
NSDHL (UniProt Q15738) -0.044
NSUN2 (UniProt Q08J23) 0.007
NT5DC1 (UniProt Q5TFE4) -0.051
NRBP2 (UniProt Q9NSY0) -0.104
NT5DC2 isoform 2 (UniProt Q9H857) -0.002

Source: the supplement of paper PMC10849652
